Test results from article PMC4891120.

Amino acid sequences for entries named in this document (tags omitted). A change or cut given only in a name is not applied to a line headed by its entry.
UniProt O14745: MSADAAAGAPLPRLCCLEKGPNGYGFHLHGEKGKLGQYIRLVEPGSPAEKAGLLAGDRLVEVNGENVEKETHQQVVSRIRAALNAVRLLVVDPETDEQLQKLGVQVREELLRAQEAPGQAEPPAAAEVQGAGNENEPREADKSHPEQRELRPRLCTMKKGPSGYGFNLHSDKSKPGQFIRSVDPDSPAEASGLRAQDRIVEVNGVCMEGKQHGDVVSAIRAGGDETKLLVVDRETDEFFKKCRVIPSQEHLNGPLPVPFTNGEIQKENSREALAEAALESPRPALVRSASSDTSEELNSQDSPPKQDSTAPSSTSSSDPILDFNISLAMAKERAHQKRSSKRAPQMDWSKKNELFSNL
UniProt Q15418: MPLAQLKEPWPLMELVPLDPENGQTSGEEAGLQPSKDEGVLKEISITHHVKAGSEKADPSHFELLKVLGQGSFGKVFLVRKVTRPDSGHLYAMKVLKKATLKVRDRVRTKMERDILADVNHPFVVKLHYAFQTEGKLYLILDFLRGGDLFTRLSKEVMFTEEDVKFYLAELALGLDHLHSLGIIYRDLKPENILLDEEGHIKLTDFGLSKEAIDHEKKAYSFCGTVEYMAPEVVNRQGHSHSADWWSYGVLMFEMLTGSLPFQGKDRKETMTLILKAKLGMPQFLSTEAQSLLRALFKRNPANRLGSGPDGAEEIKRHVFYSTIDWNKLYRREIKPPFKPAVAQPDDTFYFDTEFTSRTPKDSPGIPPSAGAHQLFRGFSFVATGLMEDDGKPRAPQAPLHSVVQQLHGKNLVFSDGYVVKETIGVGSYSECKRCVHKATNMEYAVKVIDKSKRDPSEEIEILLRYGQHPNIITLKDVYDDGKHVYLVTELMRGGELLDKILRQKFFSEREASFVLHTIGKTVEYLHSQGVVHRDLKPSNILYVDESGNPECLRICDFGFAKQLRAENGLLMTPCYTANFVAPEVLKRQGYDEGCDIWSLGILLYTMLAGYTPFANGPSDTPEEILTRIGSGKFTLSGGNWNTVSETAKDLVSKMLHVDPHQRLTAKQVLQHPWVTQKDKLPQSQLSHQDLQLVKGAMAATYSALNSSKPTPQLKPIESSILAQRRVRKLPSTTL
UniProt Q15349: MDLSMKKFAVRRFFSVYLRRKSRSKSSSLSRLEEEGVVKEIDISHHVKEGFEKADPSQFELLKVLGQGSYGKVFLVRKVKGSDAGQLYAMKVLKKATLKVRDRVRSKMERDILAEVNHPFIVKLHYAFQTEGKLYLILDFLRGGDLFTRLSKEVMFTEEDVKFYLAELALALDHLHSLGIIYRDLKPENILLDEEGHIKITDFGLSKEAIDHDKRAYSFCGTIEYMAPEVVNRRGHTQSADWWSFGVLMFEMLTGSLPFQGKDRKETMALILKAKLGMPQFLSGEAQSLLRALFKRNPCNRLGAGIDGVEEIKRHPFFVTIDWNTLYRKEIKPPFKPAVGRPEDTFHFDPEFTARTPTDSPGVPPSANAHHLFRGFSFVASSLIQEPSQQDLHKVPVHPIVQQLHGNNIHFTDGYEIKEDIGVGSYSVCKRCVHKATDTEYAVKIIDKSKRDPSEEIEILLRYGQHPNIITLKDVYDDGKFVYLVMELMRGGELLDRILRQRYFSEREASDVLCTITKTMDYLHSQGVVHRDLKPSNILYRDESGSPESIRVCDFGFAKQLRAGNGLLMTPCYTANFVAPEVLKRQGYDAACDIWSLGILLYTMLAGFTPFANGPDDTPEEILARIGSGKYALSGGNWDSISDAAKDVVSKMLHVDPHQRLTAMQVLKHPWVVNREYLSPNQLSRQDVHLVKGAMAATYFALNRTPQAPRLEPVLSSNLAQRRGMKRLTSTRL
UniProt P51812: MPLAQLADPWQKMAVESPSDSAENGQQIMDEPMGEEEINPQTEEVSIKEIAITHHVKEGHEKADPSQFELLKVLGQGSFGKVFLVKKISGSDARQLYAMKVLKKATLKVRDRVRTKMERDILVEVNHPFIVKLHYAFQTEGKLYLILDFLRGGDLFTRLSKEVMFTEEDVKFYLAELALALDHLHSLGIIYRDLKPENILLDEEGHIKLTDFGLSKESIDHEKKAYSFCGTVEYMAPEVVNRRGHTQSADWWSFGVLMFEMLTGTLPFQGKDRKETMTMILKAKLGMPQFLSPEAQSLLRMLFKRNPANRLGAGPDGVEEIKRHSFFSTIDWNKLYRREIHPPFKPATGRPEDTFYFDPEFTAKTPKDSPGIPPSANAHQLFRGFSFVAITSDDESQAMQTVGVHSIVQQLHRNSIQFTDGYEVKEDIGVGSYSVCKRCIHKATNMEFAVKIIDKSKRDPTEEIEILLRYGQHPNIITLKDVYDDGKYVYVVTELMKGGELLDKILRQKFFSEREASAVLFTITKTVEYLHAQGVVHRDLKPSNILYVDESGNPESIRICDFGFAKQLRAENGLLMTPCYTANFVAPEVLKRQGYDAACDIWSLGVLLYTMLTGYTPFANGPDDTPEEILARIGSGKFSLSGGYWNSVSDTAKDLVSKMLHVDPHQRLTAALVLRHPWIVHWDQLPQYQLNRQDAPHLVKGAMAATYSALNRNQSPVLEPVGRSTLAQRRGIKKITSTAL

Biological target: GST-fused first PDZ domain of EBP50 (human) (UniProt O14745)
Test: pull-down; GST fusions of EBP50 captured on glutathione-Sepharose 4B beads, mixed with lysate (CSK buffer) of transfected HeLa or HEK293 cells, overnight at 4°C, washed three times with CSK buffer; Western blotting; only the target purified

binding, binds:
Myc-tagged full-length RSK1 (p90 ribosomal S6 kinase 1) (from UniProt Q15418 1-735) (enzyme)
RSK3 (p90 ribosomal S6 kinase 3) (from UniProt Q15349 1-733) (enzyme)
RSK2 (p90 ribosomal S6 kinase 2) (from UniProt P51812 1-740) (enzyme)

Results are given in words; binding and its absence hold for the method and conditions named. In cells and extracts the contact can be indirect. A result given as binding can be weak or reduced; the word gives no strength.
